Common to all, as to test: pull-down
Series [1] has as its target T1, Nucleolar RNA helicase 2 (DDX21) (Homo sapiens) (UniProt Q9NR30).
T1 sequence (looked up, limits assumed): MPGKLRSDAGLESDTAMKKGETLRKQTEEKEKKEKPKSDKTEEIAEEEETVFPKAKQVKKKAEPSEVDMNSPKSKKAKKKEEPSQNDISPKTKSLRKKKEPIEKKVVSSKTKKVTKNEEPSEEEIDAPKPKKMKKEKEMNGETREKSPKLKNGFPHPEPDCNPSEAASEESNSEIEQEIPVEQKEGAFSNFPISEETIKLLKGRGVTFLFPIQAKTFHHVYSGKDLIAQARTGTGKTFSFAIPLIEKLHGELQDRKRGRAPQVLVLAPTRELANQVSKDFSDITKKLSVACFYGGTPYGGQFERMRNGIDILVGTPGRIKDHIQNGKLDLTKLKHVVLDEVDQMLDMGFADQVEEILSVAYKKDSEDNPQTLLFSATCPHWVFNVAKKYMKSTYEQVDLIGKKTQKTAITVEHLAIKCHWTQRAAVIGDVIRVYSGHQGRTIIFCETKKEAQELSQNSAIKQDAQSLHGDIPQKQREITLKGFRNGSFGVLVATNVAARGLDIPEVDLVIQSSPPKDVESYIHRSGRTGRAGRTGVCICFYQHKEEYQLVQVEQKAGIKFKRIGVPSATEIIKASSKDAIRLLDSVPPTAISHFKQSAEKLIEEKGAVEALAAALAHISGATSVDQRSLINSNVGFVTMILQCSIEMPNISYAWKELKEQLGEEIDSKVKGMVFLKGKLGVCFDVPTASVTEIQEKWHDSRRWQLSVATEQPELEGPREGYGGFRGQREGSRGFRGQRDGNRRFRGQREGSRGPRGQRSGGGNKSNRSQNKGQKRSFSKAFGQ
The note with it: Ramos cells, PSM 0 and 0; protein in an extract; label: biotin; single-stranded DNA; variant of C10.36.

In series [2] the target is Histone H4 (Homo sapiens) (UniProt P62805). The note with it: Ramos cells, PSM 16 and 13; protein in an extract; label: biotin; single-stranded DNA; variant of C10.36.
Series [3] has as its target Heterogeneous nuclear ribonucleoproteins A2/B1 (Homo sapiens) (UniProt P22626). The note with it: Ramos cells, protein in an extract, label: biotin, single-stranded DNA.
The target in series [4] is T2, NHP2-like protein 1 (Homo sapiens) (UniProt P55769).
T2 sequence (looked up, limits assumed): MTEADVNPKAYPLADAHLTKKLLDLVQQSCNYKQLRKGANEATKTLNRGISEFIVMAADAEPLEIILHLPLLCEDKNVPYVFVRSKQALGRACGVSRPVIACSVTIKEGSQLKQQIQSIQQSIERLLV
To be noted: Ramos cells, protein in an extract, label: biotin, single-stranded DNA.

Series [5] concerns the target Histone H1.5 (Homo sapiens) (UniProt P16401). To be noted: Ramos cells, PSM 9 and 11; protein in an extract; label: biotin; single-stranded DNA; variant of C10.36.
Series [6] deals with Splicing factor, proline- and glutamine-rich (SFPQ) (Homo sapiens) (UniProt P23246). To be noted: Ramos cells, PSM 0 and 0; protein in an extract; label: biotin; single-stranded DNA; variant of C10.36.
Series [7] has as its target Heterogeneous nuclear ribonucleoproteins C1/C2 (Homo sapiens) (UniProt P07910). To be noted: Ramos cells, protein in an extract, label: biotin, single-stranded DNA.
The next series deals with Nucleolin (Homo sapiens) (UniProt P19338). The note with it: Ramos cells, PSM 0 and 0; protein in an extract; label: biotin; single-stranded DNA; variant of C10.36.
Series [8] has as its target Heterogeneous nuclear ribonucleoprotein U (hnRNP U) (Homo sapiens) (UniProt Q00839). The note with it: Ramos cells, protein in an extract, label: biotin, single-stranded DNA.
In series [9] the target is Poly [ADP-ribose] polymerase 1 (Homo sapiens) (UniProt P09874). To be noted: Ramos cells, PSM 0 and 0; protein in an extract; label: biotin; single-stranded DNA; variant of C10.36.
Series [10] concerns the target T3, rRNA 2'-O-methyltransferase fibrillarin (Homo sapiens) (UniProt P22087).
T3 sequence (looked up, limits assumed): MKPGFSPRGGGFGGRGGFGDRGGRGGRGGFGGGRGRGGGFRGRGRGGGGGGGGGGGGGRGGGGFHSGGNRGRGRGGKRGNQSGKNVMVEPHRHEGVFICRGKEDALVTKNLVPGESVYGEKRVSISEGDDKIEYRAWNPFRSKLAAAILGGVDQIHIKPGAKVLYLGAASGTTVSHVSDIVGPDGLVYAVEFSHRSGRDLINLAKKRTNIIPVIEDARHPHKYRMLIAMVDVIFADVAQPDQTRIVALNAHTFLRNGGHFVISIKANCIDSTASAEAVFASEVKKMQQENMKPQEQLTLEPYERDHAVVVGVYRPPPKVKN
To be noted: Ramos cells, PSM 0 and 0; protein in an extract; label: biotin; single-stranded DNA; variant of C10.36.

In the next series the target is NONO (Homo sapiens) (UniProt Q15233). The note with it: Ramos cells, PSM 0 and 0; protein in an extract; label: biotin; single-stranded DNA; variant of C10.36.
The target in series [11] is Heterogeneous nuclear ribonucleoprotein A1 (Homo sapiens) (UniProt P09651). The note with it: Ramos cells, protein in an extract, label: biotin, single-stranded DNA.
The target in series [12] is Interleukin-3 receptor subunit alpha (Homo sapiens) (UniProt P26951). To be noted: protein on the cell surface; label: biotin; single-stranded DNA.
The target of series [13] is E3 SUMO-protein ligase RanBP2 (Homo sapiens) (UniProt P49792). The note with it: protein in an extract; label: biotin; single-stranded DNA.
Series [14] concerns Complement C1q (C1qA/C1qB/C1qC) from plasma/serum (Homo sapiens). To be noted: did not immunoprecipitate C1q from plasma; protein in an extract; label: biotin; single-stranded DNA; variant of 83S-B1 full.

For at least one entry, the source does not settle the construct or the ends of the probe. Results from cells or extracts need not show a direct contact. For part of these data: No signal at the amounts used counts as a negative. For part of these data: Where a protein sequence is shown, tags need not be part of it. For part of these data: A weaker result is weaker than the reference pair of the same experiment.

On to “CTAACCCCGGGTGTGGTGGGTGGACAGGGGGGTTAG [C10.36(G24A)]”, for which the binding result in series [1] is listed as “no binding”; in series [2], “binds more weakly”; in series [3] (PSM 1 and 0, variant of C10.36), “binds more weakly”; in series [4] (PSM 0 and 0, variant of C10.36) it was “no binding”; in [5], “binds more weakly”; in series [6], “no binding”. For the same sequence, the binding result in series [7] (PSM 0 and 0, variant of C10.36) is listed as “no binding”; in the series with Nucleolin (Homo sapiens) it was “no binding”; in series [8] (PSM 0 and 0, variant of C10.36), “no binding”; in [9], “no binding”; in series [10] it was “no binding”; with NONO (Homo sapiens) it was “no binding”. Further, the binding result in [11] (PSM 0 and 0, variant of C10.36) is listed as “no binding”.
“CTAACCCCGGGTGTGGTGGGTGGGCAGGGGGGTTAG [C10.36]”: the binding result in series [3] (PSM 6 and 3, possibly within RNP complex) is listed as “binds”; in [4] (PSM 7 and 5, possibly within RNP complex) it was “binds”; in series [7] (PSM 15 and 15, possibly within RNP complex), “binds”; in [12] it was “binds”; in [8] (PSM 2 and 4, stated to be direct binding partner) it was “binds”; in series [13] it was “binds”. For the same sequence, the binding result in series [11] (PSM 5 and 2, possibly within RNP complex) was “binds”.
As to “CTAGCATGACTGCAGTACGTTACTATAGATGGATTGTCCGCTTTAAATCAACTATCTTACTGTCTCTTATACACATCTGACGCTGCCGACGA [B1 with reverse-complemented consensus motif]”, the binding result in series [14] is “no binding”.

For the origin of these results see patent publication US20190359983.
